Earlier results, collected in patent publication US20090169540A1, “Use Of An Antagonist Of Epac For Treating Human Cardiac Hypertrophy” (priority 2005, published 2009).
Like-named read-outs stand apart in the source and are kept apart here.

Settings: cited from earlier work

For CCCCc1oc2ccccc2c1C(=O)c1cc(I)c(OCCN(CC)CC)c(I)c1 [Amiodarone], the Pulmonary toxicity incidence (as high as, in some reports) is listed as 10%-17% and the Pulmonary toxicity incidence (in some studies) is listed as 2%-7%.
